These are yes or no findings as the source states them, for the method shown. In cells and extracts the contact can be indirect. Some results given as binding are weak or reduced against the parent protein; the word gives no strength.

The experiment concerns the target T1, Recombinant mambalgin-2 (Dendroaspis polylepis) (UniProt P0DKS3).
T1 sequence: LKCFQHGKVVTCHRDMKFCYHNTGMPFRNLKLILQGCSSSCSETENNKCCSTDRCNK
Kind of experiment: pull-down; […] (100 mM TRIS, 150 mM NaCl, pH 8.0), […], TBS + 1 M NaCl + 0.5% Triton X-100, TBS + 0.5% Triton X-100; […]; only the target purified.

B1: γ-ENaC subunit (protein, UniProt P51170 1-649)
chain: MAPGEKIKAKIKKNLPVTGPQAPTIKELMRWYCLNTNTHGCRRIVVSRGRLRRLLWIGFTLTAVALILWQCALLVFSFYTVSVSIKVHFRKLDFPAVTICNINPYKYSTVRHLLADLEQETREALKSLYGFPESRKRREAESWNSVSEGKQPRFSHRIPLLIFDQDEKGKARDFFTGRKRKVGGSIIHKASNVMHIESKQVVGFQLCSNDTSDCATYTFSSGINAIQEWYKLHYMNIMAQVPLEKKINMSYSAEELLVTCFFDGVSCDARNFTLFHHPMHGNCYTFNNRENETILSTSMGGSEYGLQVILYINEEEYNPFLVSSTGAKVIIHRQDEYPFVEDVGTEIETAMVTSIGMHLTESFKLSEPYSQCTEDGSDVPIRNIYNAAYSLQICLHSCFQTKMVEKCGCAQYSQPLPPAANYCNYQQHPNWMYCYYQLHRAFVQEELGCQSVCKEACSFKEWTLTTSLAQWPSVVSEKWLLPVLTWDQGRQVNKKLNKTDLAKLLIFYKDLNQRSIMESPANSIEMLLSNFGGQLGLWMSCSVVCVIEIIEVFFIDFFSIIARRQWQKAKEWWAWKQAPPCPEAPRSPQGQDNPALDIDDDLPTFNSALHLPPALGTQVPGTPPPKYNTLRLERAFSNQLTDTQMLDEL
As for B1, the binding entry is recorded as “binds”.

B2: α-ENaC subunit (protein, UniProt P37088 1-669)
chain: MEGNKLEEQDSSPPQSTPGLMKGNKREEQGLGPEPAAPQQPTAEEEALIEFHRSYRELFEFFCNNTTIHGAIRLVCSQHNRMKTAFWAVLWLCTFGMMYWQFGLLFGEYFSYPVSLNINLNSDKLVFPAVTICTLNPYRYPEIKEELEELDRITEQTLFDLYKYSSFTTLVAGSRSRRDLRGTLPHPLQRLRVPPPPHGARRARSVASSLRDNNPQVDWKDWKIGFQLCNQNKSDCFYQTYSSGVDAVREWYRFHYINILSRLPETLPSLEEDTLGNFIFACRFNQVSCNQANYSHFHHPMYGNCYTFNDKNNSNLWMSSMPGINNGLSLMLRAEQNDFIPLLSTVTGARVMVHGQDEPAFMDDGGFNLRPGVETSISMRKETLDRLGGDYGDCTKNGSDVPVENLYPSKYTQQVCIHSCFQESMIKECGCAYIFYPRPQNVEYCDYRKHSSWGYCYYKLQVDFSSDHLGCFTKCRKPCSVTSYQLSAGYSRWPSVTSQEWVFQMLSRQNNYTVNNKRNGVAKVNIFFKELNYKTNSESPSVTMVTLLSNLGSQWSLWFGSSVLSVVEMAELVFDLLVIMFLMLLRRFRSRYWSPGRGGRGAQEVASTLASSPPSHFCPHPMSLSLSQPGPAPSPALTAPPPAYATLGPRPSPGGSAGASSSTCPLGGP
As for B2, the binding entry is “binds”.

B3: ASIC3 subunit (protein, UniProt Q9UHC3 1-531)
chain: MKPTSGPEEARRPASDIRVFASNCSMHGLGHVFGPGSLSLRRGMWAAAVVLSVATFLYQVAERVRYYREFHHQTALDERESHRLIFPAVTLCNINPLRRSRLTPNDLHWAGSALLGLDPAEHAAFLRALGRPPAPPGFMPSPTFDMAQLYARAGHSLDDMLLDCRFRGQPCGPENFTTIFTRMGKCYTFNSGADGAELLTTTRGGMGNGLDIMLDVQQEEYLPVWRDNEETPFEVGIRVQIHSQEEPPIIDQLGLGVSPGYQTFVSCQQQQLSFLPPPWGDCSSASLNPNYEPEPSDPLGSPSPSPSPPYTLMGCRLACETRYVARKCGCRMVYMPGDVPVCSPQQYKNCAHPAIDAMLRKDSCACPNPCASTRYAKELSMVRIPSRAAARFLARKLNRSEAYIAENVLALDIFFEALNYETVEQKKAYEMSELLGDIGGQMGLFIGASLLTILEILDYLCEVFRDKVLGYFWNRQHSQRHSSTNLLQEGLGSHRTQVPHLSLGPRPPTPPCAVTKTLSASHRTCYLVTQL
On to B3, for which the binding entry is “no binding”.

B4: ASIC1a subunit (protein, UniProt P78348-2 1-528)
chain: MELKAEEEEVGGVQPVSIQAFASSSTLHGLAHIFSYERLSLKRALWALCFLGSLAVLLCVCTERVQYYFHYHHVTKLDEVAASQLTFPAVTLCNLNEFRFSQVSKNDLYHAGELLALLNNRYEIPDTQMADEKQLEILQDKANFRSFKPKPFNMREFYDRAGHDIRDMLLSCHFRGEVCSAEDFKVVFTRYGKCYTFNSGRDGRPRLKTMKGGTGNGLEIMLDIQQDEYLPVWGETDETSFEAGIKVQIHSQDEPPFIDQLGFGVAPGFQTFVACQEQRLIYLPPPWGTCKAVTMDSDLDFFDSYSITACRIDCETRYLVENCNCRMVHMPGDAPYCTPEQYKECADPALDFLVEKDQEYCVCEMPCNLTRYGKELSMVKIPSKASAKYLAKKFNKSEQYIGENILVLDIFFEVLNYETIEQKKAYEIAGLLGDIGGQMGLFIGASILTVLELFDYAYEVIKHKLCRRGKCQKEAKRSSADKGVALSLDDVKRHNPCESLRGHPAGMTYAANILPHHPARGTFEDFTC
Regarding B4, the binding result is reported as “binds”.

The values above are taken from publication PMC8533404.
